No constants are given. Whether binding was seen depends on the method and setting. Binding calls can cover weak binding; strength is not graded here. For part of these data: Tags and fused reporters may be left off the sequences shown. For part of these data: Binding seen in cells or lysates may run through a third protein.
Columns and labels:
[1] = target: T1, GST-SlWRKY80 fusion protein (tomato (Solanum lycopersicum)) (UniProt K4BIZ9); test: pull-down; GST pull-down in vitro with purified GST-SlWRKY80 and MBP-SlJAZ1; method as in ref. 72; both purified
T1 sequence: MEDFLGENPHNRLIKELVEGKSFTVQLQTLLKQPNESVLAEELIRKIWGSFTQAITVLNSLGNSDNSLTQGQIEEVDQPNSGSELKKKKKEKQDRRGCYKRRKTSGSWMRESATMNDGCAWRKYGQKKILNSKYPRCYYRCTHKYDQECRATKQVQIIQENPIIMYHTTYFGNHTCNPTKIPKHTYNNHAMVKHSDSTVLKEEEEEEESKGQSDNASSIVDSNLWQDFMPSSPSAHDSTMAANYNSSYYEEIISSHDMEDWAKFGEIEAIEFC

Sequences of proteins named here, by UniProt entry; tags and fusion partners are left off. A change or cut given only in a name is not applied to a line headed by its entry.
UniProt A0A3Q7H988: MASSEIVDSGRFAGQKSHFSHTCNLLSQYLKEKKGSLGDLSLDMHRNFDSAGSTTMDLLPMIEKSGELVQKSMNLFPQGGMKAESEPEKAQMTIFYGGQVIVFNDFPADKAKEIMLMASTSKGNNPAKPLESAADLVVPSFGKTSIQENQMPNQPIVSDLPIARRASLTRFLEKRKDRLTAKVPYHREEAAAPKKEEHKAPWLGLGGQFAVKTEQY
UniProt A7XXZ0: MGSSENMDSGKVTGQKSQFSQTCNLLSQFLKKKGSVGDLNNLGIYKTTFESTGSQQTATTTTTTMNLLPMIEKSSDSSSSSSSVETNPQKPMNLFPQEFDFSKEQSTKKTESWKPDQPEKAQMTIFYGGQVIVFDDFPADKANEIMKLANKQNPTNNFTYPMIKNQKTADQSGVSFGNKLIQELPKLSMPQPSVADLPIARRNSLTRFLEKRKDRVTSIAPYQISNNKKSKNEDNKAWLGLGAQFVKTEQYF
UniProt A0A3Q7FUH8: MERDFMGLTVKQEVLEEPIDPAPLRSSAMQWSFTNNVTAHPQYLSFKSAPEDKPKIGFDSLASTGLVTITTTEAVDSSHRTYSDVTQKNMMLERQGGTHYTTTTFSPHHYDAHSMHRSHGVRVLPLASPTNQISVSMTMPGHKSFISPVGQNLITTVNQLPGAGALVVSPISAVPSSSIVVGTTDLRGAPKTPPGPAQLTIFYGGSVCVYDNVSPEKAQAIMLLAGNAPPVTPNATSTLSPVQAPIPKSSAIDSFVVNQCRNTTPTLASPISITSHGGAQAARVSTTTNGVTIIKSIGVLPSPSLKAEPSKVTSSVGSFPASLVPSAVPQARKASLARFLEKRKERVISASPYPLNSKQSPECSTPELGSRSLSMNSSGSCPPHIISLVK

[2] = target: T2, SlWRKY80 in JW771 (N-Luc) (tomato (Solanum lycopersicum)) (UniProt K4BIZ9); test: split reporter; luciferase complementary imaging (LCI): JW771 (N-Luc) and JW772 (C-Luc) constructs co-infiltrated 1:1 into tobacco leaves; 48 h; 0.5 mM D-luciferin; CCD imaging
T2 sequence: T1 sequence

[3] = target: T3, BD-SlWRKY80_(202-819bp) (tomato (Solanum lycopersicum)) (UniProt K4BIZ9); test: two-hybrid; BD-SlWRKY80(202-819bp) in pGBKT7 co-transformed with SlJAZ CDSs in pGADT7 into Y2H yeast; growth on DDO (SD/-Trp/-Leu) and QDO (SD/-Trp/-Leu/-His/-Ade), 28°C, 3-5 days
T3 sequence: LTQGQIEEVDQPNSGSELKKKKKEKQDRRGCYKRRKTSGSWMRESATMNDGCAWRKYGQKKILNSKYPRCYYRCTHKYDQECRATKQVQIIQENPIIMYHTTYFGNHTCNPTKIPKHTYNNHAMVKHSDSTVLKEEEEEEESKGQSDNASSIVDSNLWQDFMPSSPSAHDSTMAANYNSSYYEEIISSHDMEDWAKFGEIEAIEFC

[4] = target: T4, SlWRKY80 in pSPYNE (tomato (Solanum lycopersicum)) (UniProt K4BIZ9); test: split reporter; BiFC: pSPYNE and pSPYCE constructs co-infiltrated 1:1 into tobacco leaves; 48 h; confocal microscopy
T4 sequence: T1 sequence

MBP-SlJAZ1 fusion protein (from UniProt A0A3Q7H988)
binding [1]: binds

SlJAZ1 in JW772 (C-Luc) (tomato (Solanum lycopersicum))
binding [2]: binds

SlJAZ1 in pGADT7 (tomato (Solanum lycopersicum))
binding [3]: binds

SlJAZ1 in pSPYCE (tomato (Solanum lycopersicum))
binding [4]: binds

SlJAZ2 in pGADT7 (from UniProt A7XXZ0)
binding [3]: binds

SlJAZ5 in pGADT7 (from UniProt A0A3Q7FUH8)
binding [3]: binds

— paper PMC10980716
